From paper doi:10.1101/2023.03.06.531441
No constants are given. Whether binding was seen depends on the method and setting. In cells and extracts the contact can be indirect. Some binding calls cover weakened binding; strength is not graded here. Where a sequence is shown, tags or fusion partners need not be part of it.

By UniProt entry, the sequences of proteins in these tests, tags left out.
UniProt P30153: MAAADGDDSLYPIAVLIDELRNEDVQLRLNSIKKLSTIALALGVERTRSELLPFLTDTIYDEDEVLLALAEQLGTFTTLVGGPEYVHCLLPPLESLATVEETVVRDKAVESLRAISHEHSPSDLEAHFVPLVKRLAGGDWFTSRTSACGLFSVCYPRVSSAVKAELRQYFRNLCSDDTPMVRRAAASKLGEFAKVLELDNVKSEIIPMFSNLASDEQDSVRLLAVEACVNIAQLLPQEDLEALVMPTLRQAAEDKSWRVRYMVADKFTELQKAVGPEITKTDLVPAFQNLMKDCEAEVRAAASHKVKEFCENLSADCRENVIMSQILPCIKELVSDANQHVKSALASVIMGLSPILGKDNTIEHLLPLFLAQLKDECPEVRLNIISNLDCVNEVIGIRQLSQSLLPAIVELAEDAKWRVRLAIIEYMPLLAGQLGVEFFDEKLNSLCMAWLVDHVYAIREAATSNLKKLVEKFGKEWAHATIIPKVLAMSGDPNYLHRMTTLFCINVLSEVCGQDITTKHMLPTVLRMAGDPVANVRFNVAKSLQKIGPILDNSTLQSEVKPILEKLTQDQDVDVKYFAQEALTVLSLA

Target: PPP2R1A wild type, 3xFlag-tagged (human) (UniProt P30153)
Test: co-IP; 3xFlag-PPP2R1A or its mutant (bait) and 3xMyc-PPP2R3A (prey) co-transfected in HEK 293T; RIPA lysate (50 mM Tris pH 7.5, 150 mM NaCl, 5 mM EDTA, 1.0% NP-40, 0.25% sodium deoxycholate); anti-FLAG M2 affinity gel overnight at 4°C; blot with anti-FLAG and anti-MYC

binding: binds
B1: PPP2R3A, 3xMyc-tagged (protein, UniProt Q06190 1-1150)
chain: MAATYRLVVSTVNHYSSVVIDRRFEQAIHYCTGTCHTFTHGIDCIVVHHSVCADLLHIPVSQFKDADLNSMFLPHENGLSSAEGDYPQQAFTGIPRVKRGSTFQNTYNLKDIAGEAISFASGKIKEFSFEKLKNSNHAAYRKGRKVKSDSFNRRSVDLDLLCGHYNNDGNAPSFGLLRSSSVEEKPLSHRNSLDTNLTSMFLQNFSEEDLVTQILEKHKIDNFSSGTDIKMCLDILLKCSEDLKKCTDIIKQCIKKKSGSSISEGSGNDTISSSETVYMNVMTRLASYLKKLPFEFMQSGNNEALDLTELISNMPSLQLTPFSPVFGTEQPPKYEDVVQLSASDSGRFQTIELQNDKPNSRKMDTVQSIPNNSTNSLYNLEVNDPRTLKAVQVQSQSLTMNPLENVSSDDLMETLYIEEESDGKKALDKGQKTENGPSHELLKVNEHRAEFPEHATHLKKCPTPMQNEIGKIFEKSFVNLPKEDCKSKVSKFEEGDQRDFTNSSSQEEIDKLLMDLESFSQKMETSLREPLAKGKNSNFLNSHSQLTGQTLVDLEPKSKVSSPIEKVSPSCLTRIIETNGHKIEEEDRALLLRILESIEDFAQELVECKSSRGSLSQEKEMMQILQETLTTSSQANLSVCRSPVGDKAKDTTSAVLIQQTPEVIKIQNKPEKKPGTPLPPPATSPSSPRPLSPVPHVNNVVNAPLSINIPRFYFPEGLPDTCSNHEQTLSRIETAFMDIEEQKADIYEMGKIAKVCGCPLYWKAPMFRAAGGEKTGFVTAQSFIAMWRKLLNNHHDDASKFICLLAKPNCSSLEQEDFIPLLQDVVDTHPGLTFLKDAPEFHSRYITTVIQRIFYTVNRSWSGKITSTEIRKSNFLQTLALLEEEEDINQITDYFSYEHFYVIYCKFWELDTDHDLYISQADLSRYNDQASSSRIIERIFSGAVTRGKTIQKEGRMSYADFVWFLISEEDKRNPTSIEYWFRCMDVDGDGVLSMYELEYFYEEQCERMEAMGIEPLPFHDLLCQMLDLVKPAVDGKITLRDLKRCRMAHIFYDTFFNLEKYLDHEQRDPFAVQKDVENDGPEPSDWDRFAAEEYETLVAEESAQAQFQEGFEDYETDEPASPSEFGNKSNKILSASLPEKCGKLQSVDEE
